Results published in article doi:10.1101/2021.07.08.451586.

Chains of the proteins cited; added tags and fusions are not shown. Lines headed by an entry give the natural chain unless they say otherwise; changes in a name come on top.
UniProt Q15172: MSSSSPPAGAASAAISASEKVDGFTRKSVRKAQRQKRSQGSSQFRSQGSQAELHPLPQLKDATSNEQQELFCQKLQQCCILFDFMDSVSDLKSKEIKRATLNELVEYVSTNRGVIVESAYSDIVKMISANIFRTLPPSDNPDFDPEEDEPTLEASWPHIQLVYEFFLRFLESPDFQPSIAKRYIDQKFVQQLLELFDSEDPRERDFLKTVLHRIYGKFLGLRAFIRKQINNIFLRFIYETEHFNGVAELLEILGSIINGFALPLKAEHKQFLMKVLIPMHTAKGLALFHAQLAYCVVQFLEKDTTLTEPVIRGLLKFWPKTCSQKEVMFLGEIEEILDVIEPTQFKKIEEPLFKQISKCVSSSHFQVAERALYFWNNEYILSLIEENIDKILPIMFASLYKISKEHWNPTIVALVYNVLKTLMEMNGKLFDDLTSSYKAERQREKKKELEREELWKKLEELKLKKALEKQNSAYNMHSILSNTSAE
UniProt P67775: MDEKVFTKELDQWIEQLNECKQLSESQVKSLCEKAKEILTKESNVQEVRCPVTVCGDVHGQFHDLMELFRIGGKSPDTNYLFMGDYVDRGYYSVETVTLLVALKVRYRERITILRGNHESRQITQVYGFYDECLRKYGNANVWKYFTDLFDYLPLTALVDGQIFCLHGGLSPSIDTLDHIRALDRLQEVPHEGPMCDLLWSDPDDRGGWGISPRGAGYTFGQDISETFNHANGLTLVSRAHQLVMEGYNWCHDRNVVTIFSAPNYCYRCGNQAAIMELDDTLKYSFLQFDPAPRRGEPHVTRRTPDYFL

Molecular target: Strep-B56α (UniProt Q15172)
Assay: pull-down + SEC

binding: binds
Substance: His-PP2ACA (from UniProt P67775) (enzyme)

No constants are given. Whether binding was seen depends on the method and setting. In cells and extracts the contact can be indirect. A result given as binding can be weak or reduced; the word gives no strength.
